{"source": "PubChem BioAssay AID1259254 – NCATS, 2017", "assay": "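Gene knock-downs that lead to re-replication, shown by excess G2 DNA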 (primary screen)", "cells": "human HCT116 colorectal cancer cells", "knock-down reagent": "single siRNA against human genes", "timing": "3 days", "measured": "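Imaged Hoechst DNA stain sorts each cell into a cycle phase by DNA amount; per plate, G2 fraction set to 0% for non-targeting and 100% for GMNN siRNA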", "direction": "G2 robust z-score and G2 cells, % of GMNN control: higher = more G2 cells, more excess DNA replication", "active means": "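Active siRNAs have a G2 robust z of 5 or more median absolute deviations over the median, which in these data means about 38% or higher of GMNN control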", "note": "In all, the deposit lists about 59,000 reagents; shown is a part drawn at random. About 1,550 of all reagents (2.6%) were called active. 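G2 share is only a proxy for re-replication; each gene was hit by three separate siRNAs, and active genes were retested.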 Reagents against one gene are numbered here. Not all columns of the deposit are shown. No sequences are given here. Not given: the amount of reagent."}
{"gene symbol":"MAP6D1","reagent no.":1,"G2 robust z-score":1.79,"G2 cells, % of GMNN control":15.6,"Outcome":"inactive"}
{"gene symbol":"MAP6D1","reagent no.":2,"G2 robust z-score":1.02,"G2 cells, % of GMNN control":10.2,"Outcome":"inactive"}
{"gene symbol":"MAP6D1","reagent no.":3,"G2 robust z-score":-0.315,"G2 cells, % of GMNN control":0.748,"Outcome":"inactive"}
{"gene symbol":"CMBL","reagent no.":1,"G2 robust z-score":2.79,"G2 cells, % of GMNN control":22.6,"Outcome":"inactive"}
{"gene symbol":"CMBL","reagent no.":2,"G2 robust z-score":-0.538,"G2 cells, % of GMNN control":-0.82,"Outcome":"inactive"}
{"gene symbol":"CMBL","reagent no.":3,"G2 robust z-score":-0.0738,"G2 cells, % of GMNN control":2.45,"Outcome":"inactive"}

A portion from the list above, as a working copy:
{"gene symbol":"CMBL","reagent no.":1,"G2 robust z-score":2.79,"G2 cells, % of GMNN control":22.6,"Outcome":"inactive"}
{"gene symbol":"CMBL","reagent no.":2,"G2 robust z-score":-0.538,"G2 cells, % of GMNN control":-0.82,"Outcome":"inactive"}

The results go on.
{"gene symbol":"CEPT1","reagent no.":1,"G2 robust z-score":1.13,"G2 cells, % of GMNN control":10.9,"Outcome":"inactive"}
{"gene symbol":"CEPT1","reagent no.":2,"G2 robust z-score":0.969,"G2 cells, % of GMNN control":9.79,"Outcome":"inactive"}
{"gene symbol":"CEPT1","reagent no.":3,"G2 robust z-score":-1.23,"G2 cells, % of GMNN control":-5.71,"Outcome":"inactive"}
{"gene symbol":"SEPTIN9","reagent no.":1,"G2 robust z-score":-0.745,"G2 cells, % of GMNN control":-2.27,"Outcome":"inactive"}
{"gene symbol":"SEPTIN9","reagent no.":2,"G2 robust z-score":-0.693,"G2 cells, % of GMNN control":-1.91,"Outcome":"inactive"}
{"gene symbol":"SEPTIN9","reagent no.":3,"G2 robust z-score":0.194,"G2 cells, % of GMNN control":4.33,"Outcome":"inactive"}
